Where a name gives a salt, the structure may show the parent alone.
Key:
[1] = system: BV2 (mouse microglia) immortalized cell line; assay: Microglial cell viability (cell count, nuclear measures), BV2; assay type: cell-based; conditions: 10-point dose-response up to 20 or 40 μM, 24 or 48 h
Protocol: Microglial viability and phagocytosis studies: The pHrodo-myelin phagocytosis/cell viability assay, modified based on a published method, was run with BV2 (mouse microglia) and HMC3 (human microglia) immortalized cell lines in the Chu lab at IUSM. The 384-well plate high content analysis assay with BV2 and HMC3 microglial cell lines is used to quantify phagocytosis and cell viability simultaneously. High content imaging is performed with the ArrayScan automatic imaging system and imaging analysis done with the system’s software. Cells are treated with compounds for total 48 hours including final 20 hours seeded with pHrodo-myelin (labeled phagocytosis ligand, purified from mouse brain), then cells are stained with Hoechst- […]
Three measurements are extracted from the assay: 1) phagocytosis signal by mean total phagocytosis spot intensity per cell, 2) total cell counts per well as the main measurement of cell viability, and 3) mean average nuclear intensity per cell as profiling of cell health since apoptotic cells showing nuclear intensity increase (early apoptosis) and decrease (later apoptosis), respectively. […]
dose-response follow-up in duplicate or triplicate. These compounds were initially dosed up to […]

[2] = pH 7.4; cited from earlier work

In the case of `COc1cc2c(cc1OC)C(=O)C(CC1CCN(Cc3ccccc3)CC1)C2` (centres unmarked) [UNC10240506B, Donepezil Hydrochloride (E2020)], the “Toxicity in dose-response follow-up, BV2” value [1] is listed as “toxicity limited only to the 40 μM dose” and the Kinetic solubility [2] is listed as 174.6 µM.

Source: paper PMC9005681, “Use of AD Informer Set compounds to explore validity of novel targets in Alzheimer's disease pathology” (Alzheimer's & Dementia : Translational Research & Clinical …, 2022)
